# From the supplement of paper PMC8728848
# This is one part of the list.
# Key:
# Test in all cases: glycan array binding signal (z-score within array); higher = stronger binding
# Conditions in all cases: glycan notation: IUPAC condensed, linker removed
# [1] = target: Fuc(a1-2)[Gal(a1-3)]Gal(b1-4)GlcNAc(b1-2)Man(a1-3)[Fuc(a1-2)[Gal(a1-3)]Gal(b1-4)GlcNAc(b1-2)Man(a1-6)]Man(b1-4)GlcNAc(b1-4)[Fuc(a1-6)]GlcNAc
# Outline: (§1)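 Negative Z-scores can be read as non-binding. The Z-score is calculated within each array and then averaged across arrays of one protein sequence at different concentrations or buffers and across linkers. Arrays, 3228 in all, were curated from the Consortium for Functional Glycomics database and kept only where the protein sequence was available.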
# [2] = target: Fuc(a1-2)[Gal(a1-3)]Gal(b1-4)GlcNAc(b1-3)GalNAc
# Outline: as §1
# [3] = target: Fuc(a1-2)[Gal(a1-3)]Gal(b1-4)GlcNAc(b1-3)[Fuc(a1-2)[Gal(a1-3)]Gal(b1-4)GlcNAc(b1-6)]GalNAc
# Outline: as §1
# [4] = target: Fuc(a1-2)[Gal(a1-3)]Gal(b1-4)GlcNAc(b1-6)GalNAc
# Outline: as §1
# [5] = target: Fuc(a1-2)[Gal(a1-3)]Gal(b1-4)[Fuc(a1-3)]Glc
# Outline: as §1
# [6] = target: Fuc(a1-2)[Gal(a1-3)]Gal(b1-4)[Fuc(a1-3)]GlcNAc
# Outline: as §1
# [7] = target: Fuc(a1-2)[Gal(a1-3)]Gal(b1-4)[Fuc(a1-3)]GlcNAc(b1-3)GalNAc
# Outline: as §1
# [8] = target: Fuc(a1-2)[Gal(a1-4)]Gal(b1-4)GlcNAc
# Outline: as §1
# [9] = target: Fuc(a1-2)[GalNAc(a1-3)]Gal
# Outline: as §1
# [10] = target: Fuc(a1-2)[GalNAc(a1-3)]Gal(b1-3)GalNAc(a1-3)[Fuc(a1-2)]Gal(b1-4)GlcNAc
# Outline: as §1
# [11] = target: Fuc(a1-2)[GalNAc(a1-3)]Gal(b1-3)GalNAc(b1-3)Gal(a1-4)Gal(b1-4)Glc
# Outline: as §1
# [12] = target: Fuc(a1-2)[GalNAc(a1-3)]Gal(b1-3)GlcNAc
# Outline: as §1
# [13] = target: Fuc(a1-2)[GalNAc(a1-3)]Gal(b1-3)GlcNAc(b1-2)Man(a1-3)[Fuc(a1-2)[GalNAc(a1-3)]Gal(b1-3)GlcNAc(b1-2)Man(a1-6)]Man(b1-4)GlcNAc(b1-4)GlcNAc
# Outline: as §1
# [14] = target: Fuc(a1-2)[GalNAc(a1-3)]Gal(b1-3)GlcNAc(b1-2)Man(a1-3)[Fuc(a1-2)[GalNAc(a1-3)]Gal(b1-3)GlcNAc(b1-2)Man(a1-6)]Man(b1-4)GlcNAc(b1-4)[Fuc(a1-6)]GlcNAc
# Outline: as §1
# [15] = target: Fuc(a1-2)[GalNAc(a1-3)]Gal(b1-3)GlcNAc(b1-3)GalNAc
# Outline: as §1
# [16] = target: Fuc(a1-2)[GalNAc(a1-3)]Gal(b1-3)GlcNAc(b1-6)GalNAc
# Outline: as §1
# [17] = target: Fuc(a1-2)[GalNAc(a1-3)]Gal(b1-4)Glc
# Outline: as §1
# [18] = target: Fuc(a1-2)[GalNAc(a1-3)]Gal(b1-4)GlcNAc
# Outline: as §1
# [19] = target: Fuc(a1-2)[GalNAc(a1-3)]Gal(b1-4)GlcNAc(b1-2)Man
# Outline: as §1
# [20] = target: Fuc(a1-2)[GalNAc(a1-3)]Gal(b1-4)GlcNAc(b1-2)Man(a1-3)[Fuc(a1-2)[GalNAc(a1-3)]Gal(b1-4)GlcNAc(b1-2)Man(a1-6)]Man(b1-4)GlcNAc(b1-4)GlcNAc
# Outline: as §1
# [21] = target: Fuc(a1-2)[GalNAc(a1-3)]Gal(b1-4)GlcNAc(b1-2)Man(a1-3)[Fuc(a1-2)[GalNAc(a1-3)]Gal(b1-4)GlcNAc(b1-2)Man(a1-6)]Man(b1-4)GlcNAc(b1-4)[Fuc(a1-6)]GlcNAc
# Outline: as §1
# [22] = target: Fuc(a1-2)[GalNAc(a1-3)]Gal(b1-4)GlcNAc(b1-3)Gal(b1-4)GlcNAc
# Outline: as §1
# [23] = target: Fuc(a1-2)[GalNAc(a1-3)]Gal(b1-4)GlcNAc(b1-3)Gal(b1-4)GlcNAc(b1-3)Gal(b1-4)GlcNAc
# Outline: as §1
# [24] = target: Fuc(a1-2)[GalNAc(a1-3)]Gal(b1-4)GlcNAc(b1-3)GalNAc
# Outline: as §1
# [25] = target: Fuc(a1-2)[GalNAc(a1-3)]Gal(b1-4)GlcNAc(b1-3)[Fuc(a1-2)[GalNAc(a1-3)]Gal(b1-4)GlcNAc(b1-6)]GalNAc
# Outline: as §1
# [26] = target: Fuc(a1-2)[GalNAc(a1-3)]Gal(b1-4)GlcNAc(b1-6)GalNAc
# Outline: as §1
# [27] = target: Fuc(a1-2)[GalNAc(a1-3)]Gal(b1-4)[Fuc(a1-3)]GlcNAc
# Outline: as §1
# [28] = target: Fuc(a1-2)[GalNAc(a1-3)]Gal(b1-4)[Fuc(a1-3)]GlcNAc(b1-3)GalNAc
# Outline: as §1
# [29] = target: Fuc(a1-2)[GalNAc(a1-4)]Gal(b1-4)GlcNAc
# Outline: as §1
# [30] = target: Fuc(a1-2)[GalNAc(b1-3)]Gal
# Outline: as §1
# Fuc(a1-3)GlcNAc = target: Fuc(a1-3)GlcNAc
# Outline: as §1
# [31] = target: Fuc(a1-3)[Gal(b1-4)]Glc6S
# Outline: as §1
# [32] = target: Fuc(a1-3)[Gal(b1-4)]GlcNAc
# Outline: as §1
# [33] = target: Fuc(a1-3)[Gal(b1-4)]GlcNAc(b1-2)Man
# Outline: as §1
# [34] = target: Fuc(a1-3)[Gal(b1-4)]GlcNAc(b1-2)Man(a1-3)[Fuc(a1-3)[Gal(b1-4)]GlcNAc(b1-2)Man(a1-6)]Man(b1-4)GlcNAc(b1-4)GlcNAc
# Outline: as §1
# [35] = target: Fuc(a1-3)[Gal(b1-4)]GlcNAc(b1-2)Man(a1-3)[Fuc(a1-3)[Gal(b1-4)]GlcNAc(b1-2)Man(a1-6)]Man(b1-4)GlcNAc(b1-4)[Fuc(a1-6)]GlcNAc
# Outline: as §1
# [36] = target: Fuc(a1-3)[Gal(b1-4)]GlcNAc(b1-3)Gal(b1-3)[Fuc(a1-4)]GlcNAc
# Outline: as §1
# [37] = target: Fuc(a1-3)[Gal(b1-4)]GlcNAc(b1-3)Gal(b1-4)[Fuc(a1-3)]GlcNAc
# Outline: as §1
# [38] = target: Fuc(a1-3)[Gal(b1-4)]GlcNAc(b1-3)Gal(b1-4)[Fuc(a1-3)]GlcNAc(b1-3)Gal(b1-4)[Fuc(a1-3)]GlcNAc
# Outline: as §1
# [39] = target: Fuc(a1-3)[Gal(b1-4)]GlcNAc(b1-3)GalNAc
# Outline: as §1
# [40] = target: Fuc(a1-3)[Gal(b1-4)]GlcNAc(b1-6)GalNAc
# Outline: as §1
# [41] = target: Fuc(a1-3)[Gal(b1-4)]GlcNAc(b1-6)[Gal(b1-3)GlcNAc(b1-3)]Gal(b1-4)Glc
# Outline: as §1
# [42] = target: Fuc(a1-3)[Gal(b1-4)]GlcNAc6S
# Outline: as §1
# [43] = target: Fuc(a1-3)[Gal3S(b1-4)]Glc
# Outline: as §1
# [44] = target: Fuc(a1-3)[Gal3S(b1-4)]GlcNAc
# Outline: as §1
# [45] = target: Fuc(a1-3)[Gal3S(b1-4)]GlcNAc6S
# Outline: as §1
# [46] = target: Fuc(a1-3)[GalNAc(b1-4)]GlcNAc
# Outline: as §1
# [47] = target: Fuc(a1-3)[GalNAc(b1-4)]GlcNAc6S
# Outline: as §1
# Fuc(a1-4)GlcNAc = target: Fuc(a1-4)GlcNAc
# Outline: as §1
# Fuc(b1-3)GlcNAc = target: Fuc(b1-3)GlcNAc
# Outline: as §1
# Gal(a1-2)Gal = target: Gal(a1-2)Gal
# Outline: as §1
# Gal(a1-3)Gal = target: Gal(a1-3)Gal
# Outline: as §1
# Gal(a1-3)Gal(b1-3)GlcNAc = target: Gal(a1-3)Gal(b1-3)GlcNAc
# Outline: as §1
# [48] = target: Gal(a1-3)Gal(b1-3)GlcNAc(b1-2)Man
# Outline: as §1
# [49] = target: Gal(a1-3)Gal(b1-3)GlcNAc(b1-2)Man(a1-3)[Gal(a1-3)Gal(b1-3)GlcNAc(b1-2)Man(a1-6)]Man(b1-4)GlcNAc(b1-4)GlcNAc
# Outline: as §1
# [50] = target: Gal(a1-3)Gal(b1-3)GlcNAc(b1-3)GalNAc
# Outline: as §1
# [51] = target: Gal(a1-3)Gal(b1-3)GlcNAc(b1-6)GalNAc
# Outline: as §1
# [52] = target: Gal(a1-3)Gal(b1-3)[Fuc(a1-4)]GlcNAc(b1-2)Man(a1-3)[Gal(a1-3)Gal(b1-3)[Fuc(a1-4)]GlcNAc(b1-2)Man(a1-6)]Man(b1-4)GlcNAc(b1-4)GlcNAc
# Outline: as §1
# Gal(a1-3)Gal(b1-4)Glc = target: Gal(a1-3)Gal(b1-4)Glc
# Outline: as §1
# Gal(a1-3)Gal(b1-4)GlcNAc = target: Gal(a1-3)Gal(b1-4)GlcNAc
# Outline: as §1
binder,measurement,setting,value
B936 (Bifidobacterium sp) (protein) MKNWKKAIALVASAAALVSVAACGPSNAGGSSDSGKKTVGFVAVGPEGGFRTANEKDIQKAFEDAGFDLTYSPTQNNDQQKQIQAFNKFVNDEVDAIILSSTEDSGWDDSLKKAAEAEIPVFTVDRNVDVKDAEAKKAIVAHIGPSNVWCGEQAAEFVNKNFPDGANGFILEGPAGLSVVKDRGTGWGNKVASNVKVLESQSANWSTDEAKTVTAGLLDKYKSDNPQFIFAQNDEMGLGAAQAVDAAGLKGKVKIITIDGTKNALQALVDGDLSYVIEYNPIFGKETAQAVKDYLDGKTVEKDIEIESKTFDAASAKEALDNNTRAY,glycan array binding signal (z-score),[1],-0.396
same,glycan array binding signal (z-score),[2],0.021
same,glycan array binding signal (z-score),[3],-0.277
same,glycan array binding signal (z-score),[4],-0.139
same,glycan array binding signal (z-score),[5],-0.416
same,glycan array binding signal (z-score),[6],-0.405
same,glycan array binding signal (z-score),[7],-0.217
same,glycan array binding signal (z-score),[8],0.084
same,glycan array binding signal (z-score),[9],-0.496
same,glycan array binding signal (z-score),[10],-0.358
same,glycan array binding signal (z-score),[11],-0.815
same,glycan array binding signal (z-score),[12],-0.641
same,glycan array binding signal (z-score),[13],-0.417
same,glycan array binding signal (z-score),[14],1.58
same,glycan array binding signal (z-score),[15],0.325
same,glycan array binding signal (z-score),[16],0.424
same,glycan array binding signal (z-score),[17],-0.128
same,glycan array binding signal (z-score),[18],-0.587
same,glycan array binding signal (z-score),[19],-0.733
same,glycan array binding signal (z-score),[20],-0.182
same,glycan array binding signal (z-score),[21],1.77
same,glycan array binding signal (z-score),[22],0.011
same,glycan array binding signal (z-score),[23],-0.293
same,glycan array binding signal (z-score),[24],0.342
same,glycan array binding signal (z-score),[25],-0.085
same,glycan array binding signal (z-score),[26],0.289
same,glycan array binding signal (z-score),[27],0.653
same,glycan array binding signal (z-score),[28],-0.006
same,glycan array binding signal (z-score),[29],0.289
same,glycan array binding signal (z-score),[30],0.25
same,glycan array binding signal (z-score),Fuc(a1-3)GlcNAc,-0.639
same,glycan array binding signal (z-score),[31],0.442
same,glycan array binding signal (z-score),[32],-0.143
same,glycan array binding signal (z-score),[33],-0.03
same,glycan array binding signal (z-score),[34],0.328
same,glycan array binding signal (z-score),[35],0.198
same,glycan array binding signal (z-score),[36],-1.23
same,glycan array binding signal (z-score),[37],-0.555
same,glycan array binding signal (z-score),[38],-0.659
same,glycan array binding signal (z-score),[39],0.323
same,glycan array binding signal (z-score),[40],-0.808
same,glycan array binding signal (z-score),[41],-0.786
same,glycan array binding signal (z-score),[42],-0.356
same,glycan array binding signal (z-score),[43],1.4
same,glycan array binding signal (z-score),[44],-0.416
same,glycan array binding signal (z-score),[45],0.399
same,glycan array binding signal (z-score),[46],0.207
same,glycan array binding signal (z-score),[47],-0.367
same,glycan array binding signal (z-score),Fuc(a1-4)GlcNAc,-0.936
same,glycan array binding signal (z-score),Fuc(b1-3)GlcNAc,0.48
same,glycan array binding signal (z-score),Gal(a1-2)Gal,0.741
same,glycan array binding signal (z-score),Gal(a1-3)Gal,-0.254
same,glycan array binding signal (z-score),Gal(a1-3)Gal(b1-3)GlcNAc,-0.318
same,glycan array binding signal (z-score),[48],-0.791
same,glycan array binding signal (z-score),[49],2.85
same,glycan array binding signal (z-score),[50],-0.167
same,glycan array binding signal (z-score),[51],0.552
same,glycan array binding signal (z-score),[52],2.05
same,glycan array binding signal (z-score),Gal(a1-3)Gal(b1-4)Glc,0.066
same,glycan array binding signal (z-score),Gal(a1-3)Gal(b1-4)GlcNAc,-0.375

# Reprinted at random: five records from the list, in no set order.
binder,measurement,setting,value
B936 (Bifidobacterium sp) (protein) MKNWKKAIALVASAAALVSVAACGPSNAGGSSDSGKKTVGFVAVGPEGGFRTANEKDIQKAFEDAGFDLTYSPTQNNDQQKQIQAFNKFVNDEVDAIILSSTEDSGWDDSLKKAAEAEIPVFTVDRNVDVKDAEAKKAIVAHIGPSNVWCGEQAAEFVNKNFPDGANGFILEGPAGLSVVKDRGTGWGNKVASNVKVLESQSANWSTDEAKTVTAGLLDKYKSDNPQFIFAQNDEMGLGAAQAVDAAGLKGKVKIITIDGTKNALQALVDGDLSYVIEYNPIFGKETAQAVKDYLDGKTVEKDIEIESKTFDAASAKEALDNNTRAY,glycan array binding signal (z-score),Gal(a1-3)Gal(b1-4)Glc,0.066
same,glycan array binding signal (z-score),[10],-0.358
same,glycan array binding signal (z-score),Fuc(a1-3)GlcNAc,-0.639
same,glycan array binding signal (z-score),[4],-0.139
same,glycan array binding signal (z-score),[41],-0.786
